Test results taken from patent US20260209334A1.
Results are given in words; binding and its absence hold for the method and conditions named. For some assays here: In cells and extracts the contact can be indirect. Some binding calls cover weakened binding; strength is not graded here. For some assays here: Where a sequence is shown, tags or fusion partners need not be part of it.

By UniProt entry, the sequences of proteins in these tests, tags left out. Where a name states a change or a piece, a line headed by the entry shows the natural chain unless it says otherwise.
UniProt Q16552: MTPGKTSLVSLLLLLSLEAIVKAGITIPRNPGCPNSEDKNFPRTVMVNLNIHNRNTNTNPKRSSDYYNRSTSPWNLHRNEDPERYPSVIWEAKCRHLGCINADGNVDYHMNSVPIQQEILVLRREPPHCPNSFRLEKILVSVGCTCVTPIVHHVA

T1: human IL-17F with C-terminal Avi-tag, biotinylated, immobilized on BLI sensors (human) (UniProt Q96PD4)
T1 sequence (chain, biotin on the C-terminal Avi-tag (BirA)): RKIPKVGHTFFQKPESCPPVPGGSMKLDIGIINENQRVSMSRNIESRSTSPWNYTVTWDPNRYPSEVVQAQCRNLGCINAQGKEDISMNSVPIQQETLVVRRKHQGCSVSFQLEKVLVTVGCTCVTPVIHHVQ

T2: human IL-17F homodimer, bacterially expressed construct (residues 39-163 with GSEGE linker) (human) (UniProt Q96PD4)
T2 sequence: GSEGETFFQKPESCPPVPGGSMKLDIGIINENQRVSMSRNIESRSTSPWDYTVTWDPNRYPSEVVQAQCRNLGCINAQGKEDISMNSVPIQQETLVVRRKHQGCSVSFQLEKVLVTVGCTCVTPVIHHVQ


Assays:
[1] = target: human IL-17A with C-terminal Avi-tag, biotinylated, immobilized on BLI sensors (human) (UniProt Q16552); test: BLI on IL-17A, 50 nM VHH, untreated or after 10 min at 95 °C
[2] = target: human IL-17A with C-terminal Avi-tag, biotinylated, immobilized on BLI sensors (human) (UniProt Q16552); test: BLI, biotinylated IL-17A immobilized, monovalent VHH as analyte
[3] = target: T1, human IL-17F with C-terminal Avi-tag, biotinylated, immobilized on BLI sensors (human); test: BLI, biotinylated IL-17F immobilized, monovalent VHH as analyte
[4] = target: human IL-17A with C-terminal Avi-tag, biotinylated, immobilized on BLI sensors (human) (UniProt Q16552); test: BLI, IL-17A on the sensor, VHH at 50 nM, kept at room temperature (Control) or heated 10 min at 95 °C
[5] = target: human IL-17A with C-terminal Avi-tag, biotinylated, immobilized on BLI sensors (human) (UniProt Q16552); test: BLI
[6] = target: T1, human IL-17F with C-terminal Avi-tag, biotinylated, immobilized on BLI sensors (human); test: BLI
[7] = target: human IL-17A with C-terminal Avi-tag, biotinylated, immobilized on BLI sensors (human) (UniProt Q16552); test: monomeric VHH on immobilized IL-17A homodimer
[8] = target: T1, human IL-17F with C-terminal Avi-tag, biotinylated, immobilized on BLI sensors (human); test: monomeric VHH on immobilized IL-17F homodimer
[9] = target: T2, human IL-17F homodimer, bacterially expressed construct (residues 39-163 with GSEGE linker) (human); test: co-expression in E. coli, co-purification, crystallization

Binder | binding [1] | binding [2] | binding [4] | further results
Re42B04a (VHH) VHH: QVQLVESGGGLVQVGGSLRLSCEVSGLPVSSYAMGWFRQAPEKEREFVAAISWIGGDSRYAHFVKGRFTISRDNAKNTVHLQMDSLKPEDTAVYYCNDMPYGLDTRMDEYEYWGQGTQVTVSS | binds | binds | binds | binding [3]: binds
Bm43B02 (VHH) VHH: QVQLVESGGGLVQAGGSLNLSCVISRRTPSGYAMGWFRQASGKEREFVAAISWIGGGAVYADSVKGRFTMSRDNAKNTVYLQMNSLKPEDTAVYYCNDMPYGLDTTMDDYDYWGQGTLVTVSS | binds | – | binds | binding [5]: binds; binding [6]: binds; binding [7]: binds; binding [8]: binds
Bm44B11 (VHH) VHH: QVQLVESGGGLVQAGGSLNLSCVISRRTPSGYAMGWFRQASGKEREFVAAISWIGGGAVYADSVKGRFTMSRDNAKNTVYLQMNSLKPEDTAVYYCNDMPYGLDTTMDDYDYWGQGTQVTVSS | binds | – | binds | –
Bm42B11 (VHH) VHH: QVQLVESGGDLVQAGGSLRLSCSVSGLRVSSYAMGWFRQAPGKEREFVAAISWVGGDTRYADSVKGRFTMSRDNAKKQVYLEMNSLKPEDTAVYYCNDMPYGMETRMDDYASWGQGTQVTVSS | binds | – | binds | –
Bm44C09 (VHH) VHH: QVQLVESGGGLVQAGGSLRLSCAASGLAVSSYAMGWFRQAPGKEREFVAAISWISGGTKYADSVKDRFTMSRDNAKKQVYLEMNSLKPEDTAVYYCNDMPYGLDTRMDDYKYWGQGIQVTVSS | binds | – | binds | –
Bm42A03 (VHH) VHH: QVQLVESGGGLVQPGGSLRLSCVASGFTFSSFAMSWYRQDPGKERKLVAAITNDGGTTFYSDLVKGRFTISRDNTKNTVYLQMNNVKPDDAAVYYCMAVRGLYGSNWYDYPFELWGQGTQVTVSS | binds | – | binds | –
Bm44G10 (VHH) VHH: QVQLVESGGGLVQPGGSLRLSCVASGFTFSSFAMSWYRQDPGRERKLVAAITNDGGTTFYSDLVKGRFTISRDNTKNTVYLQMNNVKPDDAAVYYCMAVRGLYGSNWYDYPFELWGQGTQVTVSS | binds | – | binds | –
Re42H11 (VHH) VHH: QVQLVESGGGLVQAGGSLRLSCAASGLTASSYAMGWFRQAPGKEREFVAAISWISGGTKYADSVKGRFTMSRDNAKKQVYLEMNSLKPEDTAVYYCNDMPYGLDTRMDEYAYWGQGTQVTVSS | – | – | – | binding [9]: binds
Bm17B02 (VHH) VHH: QVQLVESGGGLVNTGGSLRLSCVVSGHTSEISAMGWYRQAPGKQRELVALITSRSGDTHYSDSVKGRFSISRDNAKNTMYLQMNSLNPDDTAVYYCVHNEPGHLYMAQGTQVTVSS | – | – | – | binding [9]: binds
VHH662 (VHH) VHH: EVQLVESGGGSVQAGDSLRLSCAASGRANSINWFGWFRQTPGKEREFVAGIRWSDAYTEYANSVKGRFTISRDNAKNTVDLQMDSLKPEDTAVYYCVLDLSTVRYWGQGTQVTVSS | – | binds | – | –
VHH664 (VHH) VHH: EVQLVESGGGLVQAGGSLRLSCAASGRTYDAMGWLRQAPGKEREFVAAISGSGDDTYYADSVKGRFTISKDNAGITMYLQMNSLKPEDTAVYYCATRRGLYYVWDSNDYENWGQGTQVTVSS | – | binds | – | –
Re42F08 (VHH) VHH: QVQLVESGGGLVKAGGSLRLSCVVSGHTSEISAMGWYRQAPGKQRELVALITSRSGDTHYSDSVKGRFSISRDNAKNTMYLQMNSLNPDDTAVYYCVHNEPGHLYMAQGTQVTVSS | – | binds | – | binding [3]: binds
